Results: patent US20160208003A1
No constants are given. Whether binding was seen depends on the method and setting. Some entries that bind do so weakly or less than the wild type.

Chains of the proteins cited; added tags and fusions are not shown.
UniProt P51679: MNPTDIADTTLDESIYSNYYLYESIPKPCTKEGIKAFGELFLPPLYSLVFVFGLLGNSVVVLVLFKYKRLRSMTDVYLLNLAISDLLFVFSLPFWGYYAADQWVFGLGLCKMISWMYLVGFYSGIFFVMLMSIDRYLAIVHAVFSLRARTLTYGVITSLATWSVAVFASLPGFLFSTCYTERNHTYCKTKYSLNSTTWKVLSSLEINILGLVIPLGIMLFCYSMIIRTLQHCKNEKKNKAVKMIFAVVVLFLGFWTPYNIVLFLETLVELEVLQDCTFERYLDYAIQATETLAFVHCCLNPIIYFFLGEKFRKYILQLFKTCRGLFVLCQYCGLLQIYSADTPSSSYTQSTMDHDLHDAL

What was measured:
[1] = target: human CC chemokine receptor 4 (CCR4) (human) (UniProt P51679); assay: competition flow cytometry on DT-40-CCR4+ cells: unlabelled competitor against ca. 10 nM biotinylated MDC, streptavidin-PE [a]
[2] = target: human CC chemokine receptor 4 (CCR4) (human) (UniProt P51679); assay: competition flow cytometry on CCRF-CEM cells: unlabelled competitor against ca. 20 nM biotinylated TARC, without BSA, streptavidin-PE [c]
[3] = target: human CC chemokine receptor 4 (CCR4) (human) (UniProt P51679); assay: competition flow cytometry on CCRF-CEM cells: unlabelled competitor against ca. 20 nM biotinylated TARC, with 1 % BSA, streptavidin-PE [d]
[4] = target: human CC chemokine receptor 4 (CCR4) (human) (UniProt P51679); assay: competition flow cytometry on DT-40-CCR4+ cells: unlabelled competitor against ca. 20 nM biotinylated TARC, without BSA, streptavidin-PE [a]
[5] = target: human CC chemokine receptor 4 (CCR4) (human) (UniProt P51679); assay: competition flow cytometry on DT-40-CCR4+ cells: unlabelled competitor against ca. 20 nM biotinylated TARC, with 1 % BSA, streptavidin-PE [b]
[6] = target: human CC chemokine receptor 4 (CCR4) (human) (UniProt P51679); assay: competition flow cytometry: unlabelled competitor against a fixed amount of biotinylated MDC; cell line not named on the sheet or in the legend
[7] = target: human CC chemokine receptor 4 (CCR4) (human) (UniProt P51679); assay: flow cytometry on CCR4-transfected DT40 cells pre-incubated with 0, 1 or 10 ng/ml MDC, then stained with 0.5 µg/ml scFv (11F, 9E, 17G, 1O, KM3060var) and anti-c-myc antibody
[8] = target: human CC chemokine receptor 4 (CCR4) (human) (UniProt P51679); assay: competition flow cytometry on CCRF-CEM cells: unlabelled competitor against ca. 10 nM biotinylated MDC, streptavidin-PE; the text notes that MDC may also bind another receptor on these cells [b]
[9] = target: human CC chemokine receptor 4 (CCR4) (human) (UniProt P51679); assay: competition flow cytometry on CCRF-CEM cells: unlabelled competitor against ca. 20 nM biotinylated MDC, streptavidin-PE; the text notes that MDC may also bind another receptor on these cells [c]
[10] = target: human CC chemokine receptor 4 (CCR4) (human) (UniProt P51679); assay: competition flow cytometry on CCRF-CEM cells: unlabelled competitor against ca. 20 nM biotinylated MDC, streptavidin-PE; the text notes that MDC may also bind another receptor on these cells [d]

Measured: binding

B1: macrophage-derived chemokine (MDC) (ligand, UniProt O00626 25-93, looked up)
chain: GPYGANMEDSVCCRDYVRYRLPLRVVKHFYWTSDSCPRPGVVLLTFRDKEICADPRVPWVKMILNKLSQ
binds: all assays above
